According to patent publication US12590147:
Results are given in words; binding and its absence hold for the method and conditions named. Some entries that bind do so weakly or less than the wild type.

The chains behind the UniProt entries cited, without tags or fusion partners. Where a name states a change or a piece, a line headed by the entry shows the natural chain unless it says otherwise.
UniProt Q8NER1: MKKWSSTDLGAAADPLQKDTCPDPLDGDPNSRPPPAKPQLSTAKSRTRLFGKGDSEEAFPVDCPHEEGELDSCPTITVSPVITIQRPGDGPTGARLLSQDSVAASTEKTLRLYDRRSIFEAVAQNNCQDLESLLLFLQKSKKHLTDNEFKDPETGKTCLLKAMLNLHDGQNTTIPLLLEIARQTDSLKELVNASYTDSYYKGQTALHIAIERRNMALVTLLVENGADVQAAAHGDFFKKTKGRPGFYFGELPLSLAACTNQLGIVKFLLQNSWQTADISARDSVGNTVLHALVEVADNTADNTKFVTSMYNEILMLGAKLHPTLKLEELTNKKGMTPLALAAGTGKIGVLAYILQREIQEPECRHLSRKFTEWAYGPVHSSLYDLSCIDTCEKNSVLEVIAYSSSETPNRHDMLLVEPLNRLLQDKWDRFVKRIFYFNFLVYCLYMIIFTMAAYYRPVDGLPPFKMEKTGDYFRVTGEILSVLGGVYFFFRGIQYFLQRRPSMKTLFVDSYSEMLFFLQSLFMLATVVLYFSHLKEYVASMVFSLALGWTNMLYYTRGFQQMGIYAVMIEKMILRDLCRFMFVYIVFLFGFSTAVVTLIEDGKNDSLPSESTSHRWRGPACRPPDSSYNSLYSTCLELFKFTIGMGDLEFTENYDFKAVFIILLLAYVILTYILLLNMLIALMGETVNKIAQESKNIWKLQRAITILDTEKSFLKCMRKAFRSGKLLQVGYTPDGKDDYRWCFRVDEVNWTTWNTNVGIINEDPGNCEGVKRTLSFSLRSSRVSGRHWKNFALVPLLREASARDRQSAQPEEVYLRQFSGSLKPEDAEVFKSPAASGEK
UniProt P02769: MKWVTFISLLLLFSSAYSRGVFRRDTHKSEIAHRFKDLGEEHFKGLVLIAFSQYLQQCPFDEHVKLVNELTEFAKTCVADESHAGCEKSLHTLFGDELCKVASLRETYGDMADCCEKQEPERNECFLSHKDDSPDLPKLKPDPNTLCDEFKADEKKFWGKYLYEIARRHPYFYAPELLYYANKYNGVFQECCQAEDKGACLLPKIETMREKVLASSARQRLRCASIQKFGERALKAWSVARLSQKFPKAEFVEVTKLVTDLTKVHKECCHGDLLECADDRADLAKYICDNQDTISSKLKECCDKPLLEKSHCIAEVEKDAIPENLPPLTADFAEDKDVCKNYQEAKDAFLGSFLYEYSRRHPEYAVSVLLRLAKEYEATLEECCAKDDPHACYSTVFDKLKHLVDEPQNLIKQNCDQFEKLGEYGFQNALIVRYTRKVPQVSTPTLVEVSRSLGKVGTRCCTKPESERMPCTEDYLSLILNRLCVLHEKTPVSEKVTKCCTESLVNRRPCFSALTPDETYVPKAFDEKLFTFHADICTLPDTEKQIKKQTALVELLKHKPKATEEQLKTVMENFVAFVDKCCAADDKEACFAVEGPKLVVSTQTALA

Columns and labels:
[1] = molecular target: human TRPV1 (transient receptor potential vanilloid type 1) (human) (UniProt Q8NER1); assay: FACS on CHO TRPV1 cells, supernatant of the parental hybridoma
[2] = molecular target: human TRPV1 (transient receptor potential vanilloid type 1) (human) (UniProt Q8NER1); assay: FACS on CHO TRPV1 cells, purified antibody
[3] = molecular target: OTV3-BSA (human; bovine) (UniProt P02769); assay: monoclonal phage ELISA
[4] = molecular target: OTV3-OVA (human); assay: monoclonal phage ELISA
[5] = molecular target: OTV4-BSA (human; bovine) (UniProt P02769); assay: monoclonal phage ELISA
[6] = molecular target: OTV4-OVA (human); assay: monoclonal phage ELISA

Binder | binding [1] | also measured
32C8-1 (antibody, V domains shown) VH: DVQLQESGPGLVKPSQSLSLTCTVTDYSFTSDFAWNWIRQFPGNKLEWMGFITYSDHTNYNPSLISRISITRDTSKNQFFLQLNSVTPEDTATYYCARSTTYFDYWGQGTTLTVSS VL: DVLMTQTPLSLPVSLGDQASISCRSSQTILHSDGNTYLEWYLQKPGQSPKLLIYKVSNRFSGVPDRFSGSGSGTDFTLKISRVEAEDLGVYYCFQGSHVPPTFGGGTKLEIK | binds | 
33C9-1 (antibody, V domains shown) VH: DVQLQESGPGLVKPSQSLSLTCTVTDYSLTSDYAWNWIRQFPGNKLEWMGYITYSGYTNYNPSLKSRISITRDTSKTQFFLQLSSVTTEDTATYYCARSTTFFDYWGQGTTLTVSS VL: DVLMTQTPLSLPVSLGDQASISCRSSQSIVHSDGNTYLEWYLQKPGQSPKLLIYKVSNRFSGVPDRFSGSGSGTDFTLKISRLEDEDLGVYYCFQGSHVPPTFGGGTKLEIK | binds | 
34C11-1 (antibody, V domains shown) VH: DVQLQESGPGLVKPSQSLSLTCTVTDYSFTSDFAWNWIRQFPGNKLEWMGFITYSDHTNYNPSLISRISITRDTSKNQFFLLLNSVTPEDTATYYCARSTTYFDYWGQGTTLTVSS VL: DVLMTQTPLSLPVSLGDQASISCRSSQSILHSDGNTYLEWYLQKPGQSPKLLIYKVSNRFSGVPDRFSGSGSGTDFTLKISRVETEDLGVYYCFQGSHVPPTFGGGTKLEIK | binds | 
40B10-1 (antibody, V domains shown) VH: DVQLQESGPGLVKPSQSLSLTCTVTDYSFTSDFAWNWIRQFPGNKLEWMGFITYSDHTNYNPSLISRISITRDTSKNQFFLLLNSVTPEDTATYYCARSTTYFDYWGQGTTLTVSS VL: DVLMTQTPLSLPVSLGDQASISCRSSQSILHSDGNTYLEWYLQKPGQSPKLLIYKVSNRFSGVPDRFSGSGSGTDFTLKISRVETEDLGVYYCFQGSHVPPTFGGGTKLEIK | binds | 
41B5-1 (antibody, V domains shown) VH: DVQLQESGPGLVKPSQSLSLTCTVTDYSLTSDYAWNWIRQFPGNKLEWMGYITYSGYTNFNPSLRSRISITRDTSKTQFFLQLNSVTAEDTATYYCVRSTTYFDYWGQGTTLTVSS VL: DVLMTQTPLSLPVSLGDQASISCRSSQSIVHSDGNTYLEWYLQKPGQSPKLLIYKVSNRFSGVPDRFSGSGSGTDFTLKINRVEAEDLGIYYCFQGSHVPPTFGGGTKLEIK | binds | 
43D6-1 (antibody, V domains shown) VH: DVQLQESGPGLVKPSQSLSLTCTVTDYSLTSDYAWNWIRQFPGNKLEWMGYITYSGYTNYNPSLKSRVSITRDTSKTQFFLQLNSVTTEDTATYYCARSTAYFDYWGQGTTLTVSS VL: DVLMTQTPLSLPVSLGDQASISCRSSQSVIHSDGNTYLEWYLQKPGQSPKLLIYKVSNRFSGVPDRFSGSGSGTDFTLKISRVEAEDLGVYYCFQGSHVPPTFGGGTKLEIK | binds | 
44E8-1 (antibody, V domains shown) VH: DVQLQESGPGLVRPSQSLSLTCTVTGYSITSDYAWNWIRQFPGNKLEWMGFITYSGNTNYNPSLKSRISITRDTSKNQFFLQLNSVTTEETATYYCASSGNYFDYWGQGTTLTVSS VL: DVLMTQTPLSLPVSLGDQASISCRSSQSIVHSDGNTYLEWYLQKPGQPPKLLIYKVSNRFSGVPDRFSGSGSGTDFTLKISRVEAEDLGFYYCFQGSHVPPTFGGGTKLEIK | binds | 
46B7-1 (antibody, V domains shown) VH: DVQLQESGPGLVKPSQSLSLTCTVTDYSLTSDYAWNWIRQFPGNKLEWMGYITYSGYTNYNPSLKSRVSITRDTSKTQFFLQLNSVTTEDTATYYCARSTAYFDYWGQGTTLTVSS VL: DVLMTQTPLSLPVSLGDQASISCRSSQSVIHSDGNTYLEWYLQKPGQSPKLLIYKVSNRFSGVPDRFSGSGSGTDFTLKISRVEAEDLGVYYCFQGSHVPPTFGGGTKLEIK | binds | 
46D9-1 (antibody, V domains shown) VH: DVQLQESGPGLVKPSQSLSLTCTVTDYSFTSDFAWNWIRQFPGNKLEWMGFITYSDHTNYNPSLISRISITRDTSKNQFFLQLNSVTPEDTATYYCARSTTYFDYWGQGTTLTVSS VL: DVLMTQTPLSLPVSLGDQASISCRSSQSILHSDGNTYLEWYMQKPGQSPKLLIYKVSNRFSGVPDRFSGSGSGTDFTLKISRVEAEDLGVYYCFQGSHVPPTFGGGTKLEIK | binds | 
17E11-1 (antibody, IgG1, V domains shown) VH: EVQLLQSVAELVRPGASVKLSCTASGFNIKNTFIHWLKQRPEQGLEWIGKIDPANGNIRCAPKFQGKATITADTSSNTAYLQLSSLTSGDTAIYYCGRGTMLVGHFYWYFDVWGTGTTVTVSS VL: DIVMSQSPSSLAVSVGEKITMSCKSSQSLLYSSNQKNYLAWYQQKPGQSPKLLIYWASTRESGVPDRFSGSGSGTDFTLTISSVKTEDLAIFYCQQYYYYPPTFGAGTKLELR |  | binding [2]: binds
R4P1-C1 (phage Fab clone) (Fab, V domains shown) VH: QVQLQQSGPGLVKPSQTLSLTCAISGDSVSSNSAAWNWIRQSPSRGLEWLGRTYYRSKWYNDYAVSVKSRITINPDTSKNQFSLQLNSVTPEDTAVYYCARDDYDPVGMYAFDIWGQGTLVTVSS VL: LPVLTQPPSASGTPGQRVTISCSGSSSNIGSNTVNWYQQLPGTAPKLLIYRNTQRPSGVPDRFSGSKSGTSASLAISGLQSEDEADYYCEAWDDSMRGAAFGGGTQLTVL |  | binding [3]: binds; binding [4]: binds; binding [5]: binds; binding [6]: binds
